The target of this assay is T1, CHMP2B(196–213) peptide, fluorescently labelled (human) (UniProt Q9UQN3).
T1 sequence (peptide, Oregon Green 488 maleimide label): ATISDEEIERQLKALGVD
The assay is described as follows: fluorescence polarisation. In general terms: Polarisation of emitted light reports the rotation of a fluorescent probe.

These are yes or no findings as the source states them, for the method shown.

B1: IST1(1–189) (IST1NTD) (domain or fragment, human, UniProt P53990 1-189, looked up)
chain: MLGSGFKAERLRVNLRLVINRLKLLEKKKTELAQKARKEIADYLAAGKDERARIRVEHIIREDYLVEAMEILELYCDLLLARFGLIQSMKELDSGLAESVSTLIWAAPRLQSEVAELKIVADQLCAKYSKEYGKLCRTNQIGTVNDRLMHKLSVEAPPKILVERYLIEIAKNYNVPYEPDSVVMAEAPP
Take B1: the binding entry is reported as “no binding”.

For the origin of these results see article doi:10.1101/386532 (bioRxiv, 2018).
